From the supplement of paper PMC10849652
The other results are listed elsewhere or left out.

The chains behind the UniProt entries cited, without tags or fusion partners. Where a name states a change or a piece, a line headed by the entry shows the natural chain unless it says otherwise.
UniProt P63167, whole entry, looked up: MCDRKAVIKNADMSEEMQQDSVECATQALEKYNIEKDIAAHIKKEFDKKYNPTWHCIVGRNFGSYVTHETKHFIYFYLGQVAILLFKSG
UniProt O00429, whole entry, looked up: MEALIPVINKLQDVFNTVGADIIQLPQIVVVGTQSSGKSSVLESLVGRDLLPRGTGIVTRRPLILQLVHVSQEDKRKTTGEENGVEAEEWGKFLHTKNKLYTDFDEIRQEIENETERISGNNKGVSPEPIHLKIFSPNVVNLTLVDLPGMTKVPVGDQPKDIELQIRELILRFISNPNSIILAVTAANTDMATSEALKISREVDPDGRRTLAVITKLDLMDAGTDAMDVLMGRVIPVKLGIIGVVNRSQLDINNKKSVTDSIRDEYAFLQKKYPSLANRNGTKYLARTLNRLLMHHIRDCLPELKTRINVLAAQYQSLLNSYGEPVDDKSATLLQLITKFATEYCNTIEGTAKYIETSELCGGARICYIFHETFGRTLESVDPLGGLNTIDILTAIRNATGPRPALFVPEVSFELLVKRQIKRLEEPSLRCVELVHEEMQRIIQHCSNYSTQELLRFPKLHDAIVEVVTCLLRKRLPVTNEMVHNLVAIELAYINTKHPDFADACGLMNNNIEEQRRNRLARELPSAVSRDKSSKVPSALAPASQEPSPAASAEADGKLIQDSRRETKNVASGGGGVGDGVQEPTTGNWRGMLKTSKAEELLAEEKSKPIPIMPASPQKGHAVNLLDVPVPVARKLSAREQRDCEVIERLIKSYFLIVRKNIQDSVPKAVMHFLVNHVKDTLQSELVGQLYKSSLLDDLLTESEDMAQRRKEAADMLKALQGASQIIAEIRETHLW
UniProt Q9UDY4: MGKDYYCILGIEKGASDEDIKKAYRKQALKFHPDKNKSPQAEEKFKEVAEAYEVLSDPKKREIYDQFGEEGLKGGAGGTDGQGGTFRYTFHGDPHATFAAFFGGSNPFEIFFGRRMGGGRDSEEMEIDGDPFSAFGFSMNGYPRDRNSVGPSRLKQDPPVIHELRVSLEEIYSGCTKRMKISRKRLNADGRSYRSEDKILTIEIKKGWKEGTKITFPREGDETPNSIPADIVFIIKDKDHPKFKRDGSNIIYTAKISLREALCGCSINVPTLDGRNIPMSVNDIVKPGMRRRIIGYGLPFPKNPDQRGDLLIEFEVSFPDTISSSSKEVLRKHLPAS
UniProt Q01658: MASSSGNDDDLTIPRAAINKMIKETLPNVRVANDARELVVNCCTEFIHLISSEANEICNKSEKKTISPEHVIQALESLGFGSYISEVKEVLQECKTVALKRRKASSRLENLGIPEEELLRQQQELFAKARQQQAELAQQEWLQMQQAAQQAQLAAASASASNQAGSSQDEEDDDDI
UniProt Q9C005, whole entry, looked up: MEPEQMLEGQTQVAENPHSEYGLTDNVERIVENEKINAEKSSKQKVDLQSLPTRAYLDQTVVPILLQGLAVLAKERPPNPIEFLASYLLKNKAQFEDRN
UniProt Q14126: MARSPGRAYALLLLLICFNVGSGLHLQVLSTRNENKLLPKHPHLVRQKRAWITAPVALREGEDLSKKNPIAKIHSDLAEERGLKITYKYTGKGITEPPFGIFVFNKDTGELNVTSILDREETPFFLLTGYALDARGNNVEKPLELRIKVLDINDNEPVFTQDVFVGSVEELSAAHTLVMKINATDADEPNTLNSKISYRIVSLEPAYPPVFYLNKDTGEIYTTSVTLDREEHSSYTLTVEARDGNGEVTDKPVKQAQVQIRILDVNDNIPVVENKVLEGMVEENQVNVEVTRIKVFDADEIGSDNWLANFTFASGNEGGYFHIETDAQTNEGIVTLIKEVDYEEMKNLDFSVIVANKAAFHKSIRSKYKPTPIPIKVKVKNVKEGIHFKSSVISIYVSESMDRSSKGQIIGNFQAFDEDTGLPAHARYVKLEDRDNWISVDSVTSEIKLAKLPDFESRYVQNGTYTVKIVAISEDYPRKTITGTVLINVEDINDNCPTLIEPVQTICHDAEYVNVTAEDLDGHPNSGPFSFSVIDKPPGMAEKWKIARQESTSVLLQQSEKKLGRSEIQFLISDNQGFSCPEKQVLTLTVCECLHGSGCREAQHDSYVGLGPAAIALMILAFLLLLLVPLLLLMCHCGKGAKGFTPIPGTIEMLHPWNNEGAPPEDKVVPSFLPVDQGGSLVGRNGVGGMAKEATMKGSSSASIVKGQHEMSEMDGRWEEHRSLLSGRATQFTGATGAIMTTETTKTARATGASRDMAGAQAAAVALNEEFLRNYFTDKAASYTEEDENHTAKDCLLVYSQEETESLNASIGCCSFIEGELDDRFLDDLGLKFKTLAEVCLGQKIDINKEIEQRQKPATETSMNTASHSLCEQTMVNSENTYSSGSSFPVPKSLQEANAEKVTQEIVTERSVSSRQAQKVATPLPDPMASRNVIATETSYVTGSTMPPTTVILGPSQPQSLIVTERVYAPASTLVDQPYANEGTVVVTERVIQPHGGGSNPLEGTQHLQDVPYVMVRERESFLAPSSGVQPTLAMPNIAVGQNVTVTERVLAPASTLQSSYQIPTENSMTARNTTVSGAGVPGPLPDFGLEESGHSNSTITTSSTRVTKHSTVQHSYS
UniProt P33316: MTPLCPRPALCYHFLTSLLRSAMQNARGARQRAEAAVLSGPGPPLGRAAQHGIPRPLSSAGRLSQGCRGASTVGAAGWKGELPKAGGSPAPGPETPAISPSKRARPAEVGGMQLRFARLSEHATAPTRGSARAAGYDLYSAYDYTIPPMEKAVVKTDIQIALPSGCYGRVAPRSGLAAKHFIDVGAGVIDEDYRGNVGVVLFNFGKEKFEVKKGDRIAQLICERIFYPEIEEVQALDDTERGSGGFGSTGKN
UniProt Q9H3H5: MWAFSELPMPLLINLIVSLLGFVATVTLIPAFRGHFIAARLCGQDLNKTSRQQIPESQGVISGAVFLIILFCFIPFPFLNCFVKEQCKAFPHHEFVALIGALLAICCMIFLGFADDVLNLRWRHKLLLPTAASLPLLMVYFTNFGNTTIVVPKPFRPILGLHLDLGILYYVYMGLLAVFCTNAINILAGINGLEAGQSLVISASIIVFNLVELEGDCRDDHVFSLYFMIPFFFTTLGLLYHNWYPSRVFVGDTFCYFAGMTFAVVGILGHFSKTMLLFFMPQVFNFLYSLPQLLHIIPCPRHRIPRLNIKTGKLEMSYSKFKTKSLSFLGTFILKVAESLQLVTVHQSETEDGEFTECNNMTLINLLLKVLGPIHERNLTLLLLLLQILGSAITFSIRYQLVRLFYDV
UniProt Q96N67: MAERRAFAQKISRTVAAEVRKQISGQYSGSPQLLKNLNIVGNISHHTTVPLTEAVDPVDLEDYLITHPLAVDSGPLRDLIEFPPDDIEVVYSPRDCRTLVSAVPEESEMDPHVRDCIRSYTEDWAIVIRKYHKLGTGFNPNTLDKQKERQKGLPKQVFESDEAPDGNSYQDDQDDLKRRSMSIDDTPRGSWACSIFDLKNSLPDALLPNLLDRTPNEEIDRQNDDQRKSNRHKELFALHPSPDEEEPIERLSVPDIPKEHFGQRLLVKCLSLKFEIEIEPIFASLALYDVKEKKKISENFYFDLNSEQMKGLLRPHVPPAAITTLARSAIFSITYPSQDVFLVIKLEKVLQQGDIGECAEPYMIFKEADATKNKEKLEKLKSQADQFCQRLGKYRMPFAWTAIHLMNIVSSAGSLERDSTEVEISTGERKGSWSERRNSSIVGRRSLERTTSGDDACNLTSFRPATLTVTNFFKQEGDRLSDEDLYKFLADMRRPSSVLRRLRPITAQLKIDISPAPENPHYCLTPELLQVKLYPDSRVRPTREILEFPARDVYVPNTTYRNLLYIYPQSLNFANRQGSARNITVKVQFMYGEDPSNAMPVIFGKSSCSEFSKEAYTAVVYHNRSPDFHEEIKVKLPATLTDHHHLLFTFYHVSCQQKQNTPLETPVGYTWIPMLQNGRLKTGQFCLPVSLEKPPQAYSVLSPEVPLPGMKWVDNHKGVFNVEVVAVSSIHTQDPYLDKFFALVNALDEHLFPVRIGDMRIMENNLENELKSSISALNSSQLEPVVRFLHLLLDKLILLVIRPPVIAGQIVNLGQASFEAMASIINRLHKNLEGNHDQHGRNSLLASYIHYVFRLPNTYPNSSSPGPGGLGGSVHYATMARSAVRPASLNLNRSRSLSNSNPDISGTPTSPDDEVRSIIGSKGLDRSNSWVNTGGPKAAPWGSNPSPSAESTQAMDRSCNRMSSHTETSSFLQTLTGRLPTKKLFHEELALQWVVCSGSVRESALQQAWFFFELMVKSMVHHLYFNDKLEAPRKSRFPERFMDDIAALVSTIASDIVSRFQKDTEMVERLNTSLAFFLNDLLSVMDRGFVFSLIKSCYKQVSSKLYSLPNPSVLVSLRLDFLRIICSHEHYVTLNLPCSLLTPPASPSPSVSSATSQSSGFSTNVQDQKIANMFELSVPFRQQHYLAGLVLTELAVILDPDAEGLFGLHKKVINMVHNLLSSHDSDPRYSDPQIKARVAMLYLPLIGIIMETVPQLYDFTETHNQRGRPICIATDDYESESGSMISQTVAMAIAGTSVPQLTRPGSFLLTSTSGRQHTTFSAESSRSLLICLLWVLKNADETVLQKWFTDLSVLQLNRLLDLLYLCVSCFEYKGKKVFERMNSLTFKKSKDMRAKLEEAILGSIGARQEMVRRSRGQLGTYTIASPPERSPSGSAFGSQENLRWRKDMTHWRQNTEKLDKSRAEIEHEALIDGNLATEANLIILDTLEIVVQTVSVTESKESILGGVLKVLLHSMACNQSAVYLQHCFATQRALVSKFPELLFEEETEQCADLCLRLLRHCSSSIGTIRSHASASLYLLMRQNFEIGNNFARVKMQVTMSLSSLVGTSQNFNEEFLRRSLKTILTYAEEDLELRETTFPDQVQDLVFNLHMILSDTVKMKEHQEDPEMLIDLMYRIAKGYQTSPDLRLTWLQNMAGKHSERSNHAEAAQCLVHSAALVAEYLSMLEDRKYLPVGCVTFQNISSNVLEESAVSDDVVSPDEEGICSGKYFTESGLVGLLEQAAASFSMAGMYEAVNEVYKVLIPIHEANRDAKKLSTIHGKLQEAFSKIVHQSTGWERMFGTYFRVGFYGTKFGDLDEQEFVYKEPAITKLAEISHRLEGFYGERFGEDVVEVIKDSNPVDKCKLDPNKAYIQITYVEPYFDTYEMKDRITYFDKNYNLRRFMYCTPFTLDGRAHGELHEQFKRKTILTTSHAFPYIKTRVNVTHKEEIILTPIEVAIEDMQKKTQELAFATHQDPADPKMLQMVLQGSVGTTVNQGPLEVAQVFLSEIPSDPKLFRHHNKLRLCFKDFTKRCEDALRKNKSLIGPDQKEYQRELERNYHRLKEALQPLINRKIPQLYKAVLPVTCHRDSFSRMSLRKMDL
UniProt Q7Z388: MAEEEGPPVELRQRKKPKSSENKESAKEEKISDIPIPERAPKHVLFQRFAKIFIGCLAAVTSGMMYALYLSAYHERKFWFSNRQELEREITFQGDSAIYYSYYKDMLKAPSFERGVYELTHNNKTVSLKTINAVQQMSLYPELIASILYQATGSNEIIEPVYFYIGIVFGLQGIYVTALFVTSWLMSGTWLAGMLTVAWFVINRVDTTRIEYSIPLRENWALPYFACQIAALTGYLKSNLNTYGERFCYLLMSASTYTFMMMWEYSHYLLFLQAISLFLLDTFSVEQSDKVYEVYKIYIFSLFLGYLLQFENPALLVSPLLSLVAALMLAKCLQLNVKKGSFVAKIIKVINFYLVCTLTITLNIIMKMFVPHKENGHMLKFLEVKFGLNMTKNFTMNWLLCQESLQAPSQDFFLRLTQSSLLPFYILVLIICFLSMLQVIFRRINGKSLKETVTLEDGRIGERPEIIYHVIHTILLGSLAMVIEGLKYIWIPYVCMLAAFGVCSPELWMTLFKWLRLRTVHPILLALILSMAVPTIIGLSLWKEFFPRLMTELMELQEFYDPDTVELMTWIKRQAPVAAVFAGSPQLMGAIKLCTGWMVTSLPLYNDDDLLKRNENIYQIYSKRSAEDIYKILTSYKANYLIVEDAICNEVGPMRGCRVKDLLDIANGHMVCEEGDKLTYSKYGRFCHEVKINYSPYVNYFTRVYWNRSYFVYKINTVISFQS
UniProt Q9BTV6: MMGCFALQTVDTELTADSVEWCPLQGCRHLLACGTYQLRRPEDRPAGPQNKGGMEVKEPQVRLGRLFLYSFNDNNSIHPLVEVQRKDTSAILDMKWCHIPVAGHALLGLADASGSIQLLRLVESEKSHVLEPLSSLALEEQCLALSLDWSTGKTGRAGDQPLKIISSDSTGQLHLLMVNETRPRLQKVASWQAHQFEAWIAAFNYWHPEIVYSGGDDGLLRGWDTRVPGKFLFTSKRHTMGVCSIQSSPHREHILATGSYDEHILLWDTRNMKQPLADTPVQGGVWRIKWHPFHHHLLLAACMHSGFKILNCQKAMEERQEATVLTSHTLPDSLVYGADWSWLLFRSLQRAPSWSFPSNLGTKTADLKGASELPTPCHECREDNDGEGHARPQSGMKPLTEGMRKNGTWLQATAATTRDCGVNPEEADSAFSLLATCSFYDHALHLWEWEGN

Compound: CN(CCOC1=CC=C(C=C1)C[C@H]2C(=O)NC(=O)S2)C3=CC=CC=N3 (racemic) [rosiglitazone]
Experiment: log2 fold change, soluble protein after heating vs DMSO (PISA); higher = thermal stabilisation; K562 cells, 10 uM, 30 min; active = over 0.2 and 3.5 SD of the protein, either way, in both replicates (recomputed)
Outline: (§1)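 K562 cells at 2×10^6 cells/mL were treated with 10 μM compound for 30 min. Aliquots were heated for 3 min across 48°C-58°C, pooled, and extracted in PBS with 0.5% NP-40 at 4°C; soluble protein was the supernatant after 21,000xg for 90 min. Soluble protein was quantified by TMTpro 16plex LC-MS/MS with channel sums equalised, and reported as log2 fold change in thermal stability against DMSO controls, with values from duplicates.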

Row | Target | log2 fold change
1 | EDEM1 (UniProt Q92611) | inactive: -0.05
2 | EBP (UniProt Q15125) | inactive: 0.064
3 | DYNLL1 (UniProt P63167) | inactive: -0.031
4 | DPH6 (UniProt Q7L8W6) | inactive: 0.007
5 | ECSIT (UniProt Q9BQ95) | inactive: -0.008
6 | DNAJC9 (UniProt Q8WXX5) | inactive: 0.013
7 | DNAJC2 (UniProt Q99543) | inactive: 0.114
8 | ECI1 (UniProt P42126) | inactive: 0
9 | DNM1L isoform 6 (UniProt O00429) | inactive: 0.023
10 | DPF2 (UniProt Q92785) | inactive: 0.196
11 | DNAJB4 (UniProt Q9UDY4) | inactive: 0.03
12 | ECHDC1 (UniProt Q9NTX5) | inactive: -0.003
13 | DTD1 (UniProt Q8TEA8) | inactive: -0.014
14 | DR1 (UniProt Q01658) | inactive: 0.061
15 | DPY30 (UniProt Q9C005) | inactive: -0.161
16 | DNAJB6 (UniProt O75190) | inactive: -0.014
17 | DOCK9 isoform 4 (UniProt Q9BZ29) | inactive: 0.121

Row | Target | log2 fold change
18 | DPP7 (UniProt Q9UHL4) | inactive: 0.009
19 | DNASE2 (UniProt O00115) | inactive: -0.022
20 | DUSP3 (UniProt P51452) | inactive: 0.02
21 | DSG2 (UniProt Q14126) | inactive: 0.014
22 | DNAJC17 (UniProt Q9NVM6) | inactive: -0.013
23 | DPH2 (UniProt Q9BQC3) | inactive: 0.011
24 | EBAG9 isoform 2 (UniProt O00559) | inactive: -0.039
25 | DUT (UniProt P33316) | inactive: 0.017
26 | DNPH1 (UniProt O43598) | inactive: -0.019
27 | DPAGT1 (UniProt Q9H3H5) | inactive: 0.032
28 | DPH1 (UniProt Q9BZG8) | inactive: 0.037
29 | DOCK7 (UniProt Q96N67) | inactive: 0.079
30 | DPY19L4 (UniProt Q7Z388) | inactive: 0.053
31 | DPP9 isoform 2 (UniProt Q86TI2) | inactive: 0.053
32 | DPH7 (UniProt Q9BTV6) | inactive: 0.005
33 | EDEM3 (UniProt Q9BZQ6) | inactive: -0.054

Compound: CN1C2=C(C3=C1C(=O)N(N=C3)CC4=CC(=CC=C4)N)SC(=C2)S(=O)C
Experiment: as above
Outline: as §1

Row | Target | log2 fold change
34 | EDEM1 (UniProt Q92611) | inactive: 0.128
35 | EBP (UniProt Q15125) | inactive: 0.09
36 | DYNLL1 (UniProt P63167) | inactive: 0.029
37 | DPH6 (UniProt Q7L8W6) | inactive: -0.015
38 | ECSIT (UniProt Q9BQ95) | inactive: 0.084
39 | DNAJC9 (UniProt Q8WXX5) | inactive: -0.053
40 | DNAJC2 (UniProt Q99543) | inactive: 0.119
41 | ECI1 (UniProt P42126) | inactive: -0.025
42 | DNM1L isoform 6 (UniProt O00429) | inactive: -0.053
43 | DPF2 (UniProt Q92785) | inactive: 0.007
44 | DNAJB4 (UniProt Q9UDY4) | inactive: -0.049
45 | ECHDC1 (UniProt Q9NTX5) | inactive: -0.028
46 | DTD1 (UniProt Q8TEA8) | inactive: 0.033
47 | DR1 (UniProt Q01658) | inactive: 0.003
48 | DPY30 (UniProt Q9C005) | inactive: 0.087
49 | DNAJB6 (UniProt O75190) | inactive: 0.004
50 | DOCK9 isoform 4 (UniProt Q9BZ29) | inactive: 0.145

Row | Target | log2 fold change
51 | DPP7 (UniProt Q9UHL4) | inactive: -0.006
52 | DNASE2 (UniProt O00115) | inactive: -0.044
53 | DUSP3 (UniProt P51452) | inactive: -0.108
54 | DSG2 (UniProt Q14126) | inactive: -0.039
55 | DNAJC17 (UniProt Q9NVM6) | inactive: -0.036
56 | DPH2 (UniProt Q9BQC3) | inactive: -0.006
57 | EBAG9 isoform 2 (UniProt O00559) | inactive: 0.238
58 | DUT (UniProt P33316) | inactive: -0.048
59 | DNPH1 (UniProt O43598) | inactive: -0.05
60 | DPAGT1 (UniProt Q9H3H5) | inactive: -0.156
61 | DPH1 (UniProt Q9BZG8) | inactive: 0.002
62 | DOCK7 (UniProt Q96N67) | inactive: -0.02
63 | DPY19L4 (UniProt Q7Z388) | inactive: 0.13
64 | DPP9 isoform 2 (UniProt Q86TI2) | inactive: -0.053
65 | DPH7 (UniProt Q9BTV6) | inactive: -0.15
66 | EDEM3 (UniProt Q9BZQ6) | inactive: 0.024

Compound: CN1CCC(CNc2ccc3ncc(-c4cccc(OC(F)(F)F)c4)n3n2)CC1
Experiment: as above
Outline: as §1

Row | Target | log2 fold change
67 | EDEM1 (UniProt Q92611) | inactive: 0.002
68 | EBP (UniProt Q15125) | inactive: 0.119
69 | DYNLL1 (UniProt P63167) | inactive: 0.04
70 | DPH6 (UniProt Q7L8W6) | inactive: 0.006
71 | ECSIT (UniProt Q9BQ95) | inactive: -0.004
72 | DNAJC9 (UniProt Q8WXX5) | inactive: -0.065
73 | DNAJC2 (UniProt Q99543) | inactive: -0.125
74 | ECI1 (UniProt P42126) | inactive: 0.031
75 | DNM1L isoform 6 (UniProt O00429) | inactive: -0.186
76 | DPF2 (UniProt Q92785) | inactive: -0.027
77 | DNAJB4 (UniProt Q9UDY4) | inactive: -0.057
78 | ECHDC1 (UniProt Q9NTX5) | inactive: 0.003
79 | DTD1 (UniProt Q8TEA8) | inactive: 0.215
80 | DR1 (UniProt Q01658) | inactive: -0.036
81 | DPY30 (UniProt Q9C005) | inactive: 0.228
82 | DNAJB6 (UniProt O75190) | inactive: -0.042
83 | DOCK9 isoform 4 (UniProt Q9BZ29) | inactive: -0.07

Row | Target | log2 fold change
84 | DPP7 (UniProt Q9UHL4) | inactive: -0.139
85 | DNASE2 (UniProt O00115) | inactive: -0.054
86 | DUSP3 (UniProt P51452) | inactive: 0.011
87 | DSG2 (UniProt Q14126) | inactive: 0.018
88 | DNAJC17 (UniProt Q9NVM6) | inactive: -0.038
89 | DPH2 (UniProt Q9BQC3) | inactive: -0.044
90 | EBAG9 isoform 2 (UniProt O00559) | inactive: -0.056
91 | DUT (UniProt P33316) | inactive: -0.056
92 | DNPH1 (UniProt O43598) | inactive: 0.009
93 | DPAGT1 (UniProt Q9H3H5) | inactive: -0.153
94 | DPH1 (UniProt Q9BZG8) | inactive: -0.102
95 | DOCK7 (UniProt Q96N67) | inactive: -0.073
96 | DPY19L4 (UniProt Q7Z388) | inactive: 0.06
97 | DPP9 isoform 2 (UniProt Q86TI2) | inactive: -0.204
98 | DPH7 (UniProt Q9BTV6) | inactive: -0.04
99 | EDEM3 (UniProt Q9BZQ6) | inactive: 0.009
